Test results: doi:10.1101/2025.06.10.658772 (bioRxiv, 2025)

Legend:
[1] = target: C-terminally LgBiT-fused Lc-GPR25 (coelacanth (Latimeria chalumnae)) (UniProt H3AQL3); experiment: split reporter
[2] = target: N-terminally sLgBiT-fused Lc-GPR25 (coelacanth (Latimeria chalumnae)) (UniProt H3AQL3); experiment: split reporter

Molecule	binding [1]	binding [2]
N-terminally SmBiT-fused human β-arrestin 2 (ARRB2) (from UniProt P32121 1-409)	binds	–
N-terminally 6×His-tagged wild-type (WT) human CXCL17 (ligand) SSLNPGVARGHRDRGQASRRWLQEGGQECECKDWFLRAPRRKFMTVSGLPKKQCPCDHFKGNVKKTRHQRHHRKPNKHSRACQQFLKQCQLRSFALPL	–	binds

Results are given in words; binding and its absence hold for the method and conditions named. In cells and extracts the contact can be indirect. Binding can be weak; no strength is given. For some assays here: Tags and fused reporters may be left off the sequences shown.
